Measurements reported in PubChem BioAssay AID1508597 (Cure First, 2020).

Assay: 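Genes whose silencing sensitises or protects ovarian cancer cells against rucaparib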 (primary screen)
Cell system: human ovarian carcinoma lines grown from tumours: OCI-P5x (papillary serous) and OCI-C5x (clear cell)
Reagents: siRNA pool against human genes, 1.25 pmol siRNA per well
Duration: 72 h or 96 h, depending on the cell culture
Treatment: rucaparib 20 µM (about IC30) or vehicle, present until read-out
Rucaparib or vehicle: Vehicle
Cell line: OCI-C5x (clear cell)
Measurement: 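ATP luminescence measured at 72 or 96 h according to the culture, then normalised and expressed as percent viability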
Reading the numbers: viability, normalised: higher = more viable cells remaining
Rule for the call: 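Active when normalised viability falls below 80 percent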
Meaning of the calls: active = viability under 80%; inactive = viability 80% or more
This is an unselected part of the about 2,100 reagents, in one setting of the screen. 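Calls flag viability under 80% in either arm, not effects specific to rucaparib; the reference for percent is not stated.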 The numbers tell different reagents against one gene apart. A reagent listed more than once was tested more than once; the source does not tell the runs apart. No sequences are given here. Not stated in the record: the 100% reference.

gene knocked down	reagent no.	technical replicate	viability, normalised (%)	call
IP6K3	1	1	53.3	active
IP6K3	1	2	49.5	active
IP6K3	1	3	61.3	active
IP6K3	2	1	49.3	active
IP6K3	2	2	67.8	active
IP6K3	2	3	45.4	active
NEK2	1	1	70	active
NEK2	1	1	116	inactive
NEK2	1	2	70.2	active
NEK2	1	2	67.7	active
NEK2	1	3	68.3	active
NEK2	1	3	66.3	active
TNIK	1	1	45.4	active
TNIK	1	2	45.9	active
TNIK	1	3	42.9	active

No new results follow: 5 of the entries above.
gene knocked down	reagent no.	technical replicate	viability, normalised (%)	call
NEK2	1	3	68.3	active
NEK2	1	3	66.3	active
TNIK	1	1	45.4	active
TNIK	1	2	45.9	active
TNIK	1	3	42.9	active

Next entries follow.
gene knocked down	reagent no.	technical replicate	viability, normalised (%)	call
CHD4	1	1	47	active
CHD4	1	2	44.2	active
CHD4	1	3	38.6	active
CHD2	1	1	33.5	active
CHD2	1	2	59.5	active
CHD2	1	3	59.1	active
PMS1	1	1	63.8	active
PMS1	1	2	50.9	active
PMS1	1	3	54	active
RIOX1	1	1	26.1	active
RIOX1	1	2	37.2	active
RIOX1	1	3	39.4	active
TNRC6B	1	1	36.9	active
TNRC6B	1	2	41.1	active
TNRC6B	1	3	48	active
SP100	1	1	56	active
SP100	1	2	54.5	active
SP100	1	3	50.6	active
SSBP1	1	1	88.7	inactive
SSBP1	1	2	88	inactive
SSBP1	1	3	83.9	inactive
KIF11	1	1	23.1	active
KIF11	1	2	28.5	active
KIF11	1	3	24.4	active
